These are yes or no findings as the source states them, for the method shown. In cells and extracts the contact can be indirect. Some binding calls cover weakened binding; strength is not graded here. Where a sequence is shown, tags or fusion partners need not be part of it.

Chains of the proteins cited; added tags and fusions are not shown.
UniProt O95832: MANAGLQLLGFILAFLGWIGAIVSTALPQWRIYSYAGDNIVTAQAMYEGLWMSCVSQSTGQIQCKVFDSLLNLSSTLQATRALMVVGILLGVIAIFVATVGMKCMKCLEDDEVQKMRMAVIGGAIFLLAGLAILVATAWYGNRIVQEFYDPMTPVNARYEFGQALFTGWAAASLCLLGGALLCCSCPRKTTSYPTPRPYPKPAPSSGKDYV

Binding data for one substance are collected here from paper PMC10837946.

The target of this test is T1, Ubiquitin-specific protease 40 (HA-USP40) (UniProt Q9NVE5).
T1 sequence: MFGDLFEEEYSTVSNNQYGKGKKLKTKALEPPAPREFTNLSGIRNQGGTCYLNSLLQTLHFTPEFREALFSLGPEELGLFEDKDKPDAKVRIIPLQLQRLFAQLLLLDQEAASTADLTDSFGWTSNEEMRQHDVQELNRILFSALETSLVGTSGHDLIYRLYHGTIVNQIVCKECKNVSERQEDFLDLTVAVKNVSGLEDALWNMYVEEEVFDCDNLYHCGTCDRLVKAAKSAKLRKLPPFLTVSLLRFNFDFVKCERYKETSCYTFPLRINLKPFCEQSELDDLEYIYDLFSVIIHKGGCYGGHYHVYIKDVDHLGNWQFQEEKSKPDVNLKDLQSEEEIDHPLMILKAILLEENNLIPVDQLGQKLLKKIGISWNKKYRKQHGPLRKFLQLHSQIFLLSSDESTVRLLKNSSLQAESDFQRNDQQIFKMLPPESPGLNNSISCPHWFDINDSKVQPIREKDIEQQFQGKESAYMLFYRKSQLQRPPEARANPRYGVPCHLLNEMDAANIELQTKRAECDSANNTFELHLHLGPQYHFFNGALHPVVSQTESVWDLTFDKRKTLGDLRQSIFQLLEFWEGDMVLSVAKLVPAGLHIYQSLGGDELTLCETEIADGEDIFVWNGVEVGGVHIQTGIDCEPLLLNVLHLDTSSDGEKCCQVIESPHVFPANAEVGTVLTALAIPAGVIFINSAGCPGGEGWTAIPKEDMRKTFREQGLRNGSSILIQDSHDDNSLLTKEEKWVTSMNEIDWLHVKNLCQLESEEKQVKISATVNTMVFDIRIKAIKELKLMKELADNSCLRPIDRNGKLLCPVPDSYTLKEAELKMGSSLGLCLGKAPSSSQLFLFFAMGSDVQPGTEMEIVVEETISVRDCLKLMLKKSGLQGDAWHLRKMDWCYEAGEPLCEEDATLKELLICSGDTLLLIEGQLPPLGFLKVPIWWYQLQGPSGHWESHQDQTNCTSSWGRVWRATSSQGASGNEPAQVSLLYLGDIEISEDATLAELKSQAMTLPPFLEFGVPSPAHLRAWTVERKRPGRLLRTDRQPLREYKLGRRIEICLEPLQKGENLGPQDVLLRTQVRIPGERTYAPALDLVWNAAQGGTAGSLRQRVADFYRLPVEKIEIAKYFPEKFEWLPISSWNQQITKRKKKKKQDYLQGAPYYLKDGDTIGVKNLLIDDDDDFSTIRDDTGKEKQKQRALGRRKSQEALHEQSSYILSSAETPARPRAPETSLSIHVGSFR
The test is described as follows: co-IP; HA-USP40 and Claudin1 plasmids co-transfected into Huh7 and MHCC97H cells for 48 h; IP lysis buffer; magnetic bead-antibody complex incubated with the lysate at 4 °C overnight; western blotting. On the technique in general: A western blot detects proteins with antibodies after separation by electrophoresis.

For Claudin1 (from UniProt O95832 1-211), the binding entry is “binds”.
